According to patent publication US20090130692A1:
Results are given in words; binding and its absence hold for the method and conditions named.

By UniProt entry, the sequences of proteins in these tests, tags left out. Where a name states a change or a piece, a line headed by the entry shows the natural chain unless it says otherwise.
UniProt P20231: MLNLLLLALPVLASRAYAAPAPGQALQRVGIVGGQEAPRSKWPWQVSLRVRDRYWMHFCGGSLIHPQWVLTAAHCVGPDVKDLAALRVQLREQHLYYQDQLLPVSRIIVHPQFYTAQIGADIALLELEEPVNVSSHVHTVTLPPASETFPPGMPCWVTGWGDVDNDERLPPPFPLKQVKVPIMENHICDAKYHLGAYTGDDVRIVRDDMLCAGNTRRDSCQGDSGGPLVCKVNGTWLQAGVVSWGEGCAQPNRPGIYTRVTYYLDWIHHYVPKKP

Target: human tryptase β-III (Human) (UniProt P20231)
Assay: enzyme inhibition, Kiapp determination

MCoEeTI-2R-10 (from UniProt P00648 48-157)
binding: no binding (tested: at 0.5 µM protein concentration)
